# Values quoted from earlier work in publication PMC6009889, “Kinetic and structural studies on the interactions of Torpedo californica acetylcholinesterase with two donepezil-like rigid analogues” (Journal of Enzyme Inhibition and Medicinal Chemistry, 2018).
# Details: cited from earlier work
compound,measurement,value
"COc1cc2c(cc1OC)C(=O)C(CC1CCN(Cc3ccccc3)CC1)C2 (stereo not shown) [Donepezil, donepezil]",pKa,8.94 ± 0.18
